The text below walks through data of article doi:10.1101/2024.03.11.584487.

Amino acid sequences for entries named in this document (tags omitted).
UniProt Q925T6: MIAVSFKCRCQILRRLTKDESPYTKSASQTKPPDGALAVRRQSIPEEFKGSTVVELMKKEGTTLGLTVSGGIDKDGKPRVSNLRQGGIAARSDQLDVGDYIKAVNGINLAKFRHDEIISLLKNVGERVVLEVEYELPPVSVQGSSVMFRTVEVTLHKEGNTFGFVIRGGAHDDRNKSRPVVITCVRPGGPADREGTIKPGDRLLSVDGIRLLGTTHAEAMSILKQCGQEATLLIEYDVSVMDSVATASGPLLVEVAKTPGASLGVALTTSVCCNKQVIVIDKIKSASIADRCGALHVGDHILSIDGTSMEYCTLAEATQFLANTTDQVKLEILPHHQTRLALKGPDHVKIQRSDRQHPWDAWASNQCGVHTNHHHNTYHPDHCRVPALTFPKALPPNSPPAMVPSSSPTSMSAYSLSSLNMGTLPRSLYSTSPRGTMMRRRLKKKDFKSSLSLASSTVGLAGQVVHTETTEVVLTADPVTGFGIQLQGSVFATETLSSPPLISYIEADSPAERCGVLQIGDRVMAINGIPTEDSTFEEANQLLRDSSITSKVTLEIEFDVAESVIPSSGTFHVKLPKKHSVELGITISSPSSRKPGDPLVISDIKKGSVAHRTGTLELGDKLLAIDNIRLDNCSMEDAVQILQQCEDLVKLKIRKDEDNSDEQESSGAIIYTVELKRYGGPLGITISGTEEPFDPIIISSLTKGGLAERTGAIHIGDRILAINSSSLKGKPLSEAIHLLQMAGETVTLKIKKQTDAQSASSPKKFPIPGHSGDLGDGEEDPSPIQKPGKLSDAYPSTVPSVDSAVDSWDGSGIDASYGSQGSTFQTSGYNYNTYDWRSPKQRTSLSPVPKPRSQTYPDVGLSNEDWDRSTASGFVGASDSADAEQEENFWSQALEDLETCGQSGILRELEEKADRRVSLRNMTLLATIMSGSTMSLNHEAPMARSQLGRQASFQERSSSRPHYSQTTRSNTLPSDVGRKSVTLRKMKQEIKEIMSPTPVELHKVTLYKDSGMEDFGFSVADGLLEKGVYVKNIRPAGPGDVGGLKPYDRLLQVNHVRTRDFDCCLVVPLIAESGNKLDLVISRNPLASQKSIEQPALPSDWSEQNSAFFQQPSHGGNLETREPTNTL
UniProt Q6NXJ0: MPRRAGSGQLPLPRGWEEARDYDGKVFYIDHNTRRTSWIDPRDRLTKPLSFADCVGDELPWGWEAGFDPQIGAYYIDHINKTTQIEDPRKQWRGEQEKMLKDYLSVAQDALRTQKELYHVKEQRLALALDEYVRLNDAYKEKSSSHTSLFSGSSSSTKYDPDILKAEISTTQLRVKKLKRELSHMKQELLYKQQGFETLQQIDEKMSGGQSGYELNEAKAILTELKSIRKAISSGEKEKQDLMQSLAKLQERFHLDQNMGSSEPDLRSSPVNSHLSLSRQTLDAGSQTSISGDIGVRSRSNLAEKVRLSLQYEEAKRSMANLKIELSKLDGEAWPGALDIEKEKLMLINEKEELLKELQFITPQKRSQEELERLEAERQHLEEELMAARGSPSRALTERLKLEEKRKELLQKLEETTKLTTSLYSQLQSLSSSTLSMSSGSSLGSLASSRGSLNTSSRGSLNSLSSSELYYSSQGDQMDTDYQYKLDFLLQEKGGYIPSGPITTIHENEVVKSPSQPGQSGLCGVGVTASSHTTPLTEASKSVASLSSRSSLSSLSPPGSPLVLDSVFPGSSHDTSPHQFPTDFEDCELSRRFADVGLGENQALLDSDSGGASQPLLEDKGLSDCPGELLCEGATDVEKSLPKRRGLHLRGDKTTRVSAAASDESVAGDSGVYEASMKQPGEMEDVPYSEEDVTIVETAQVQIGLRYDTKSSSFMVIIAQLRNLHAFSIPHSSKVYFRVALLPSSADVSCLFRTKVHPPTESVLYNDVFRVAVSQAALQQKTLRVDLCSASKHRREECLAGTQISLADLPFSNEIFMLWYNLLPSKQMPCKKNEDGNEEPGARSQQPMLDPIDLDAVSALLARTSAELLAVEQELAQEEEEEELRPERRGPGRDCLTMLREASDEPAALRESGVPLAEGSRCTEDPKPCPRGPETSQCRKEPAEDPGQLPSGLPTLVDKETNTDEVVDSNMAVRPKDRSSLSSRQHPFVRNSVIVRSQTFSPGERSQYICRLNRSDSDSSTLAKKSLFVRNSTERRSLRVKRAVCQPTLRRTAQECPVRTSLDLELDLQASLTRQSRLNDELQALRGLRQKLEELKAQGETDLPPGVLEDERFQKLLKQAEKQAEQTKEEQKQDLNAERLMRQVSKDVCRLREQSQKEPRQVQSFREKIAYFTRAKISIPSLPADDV

Read-outs that look alike come from different tables or passages of the source. Results are given in words; binding and its absence hold for the method and conditions named. In cells and extracts the contact can be indirect. Some binding calls cover weakened binding; strength is not graded here.

Holding throughout (assay): co-IP
Assay [1] concerns the target glutamate receptor interacting protein 1 (GRIP1) (mouse (endogenous in forebrain)) (UniProt Q925T6).
Assay [2] deals with T1, huntingtin-associated protein 1 (HAP1) (mouse (endogenous in forebrain)) (UniProt O35668).
T1 sequence: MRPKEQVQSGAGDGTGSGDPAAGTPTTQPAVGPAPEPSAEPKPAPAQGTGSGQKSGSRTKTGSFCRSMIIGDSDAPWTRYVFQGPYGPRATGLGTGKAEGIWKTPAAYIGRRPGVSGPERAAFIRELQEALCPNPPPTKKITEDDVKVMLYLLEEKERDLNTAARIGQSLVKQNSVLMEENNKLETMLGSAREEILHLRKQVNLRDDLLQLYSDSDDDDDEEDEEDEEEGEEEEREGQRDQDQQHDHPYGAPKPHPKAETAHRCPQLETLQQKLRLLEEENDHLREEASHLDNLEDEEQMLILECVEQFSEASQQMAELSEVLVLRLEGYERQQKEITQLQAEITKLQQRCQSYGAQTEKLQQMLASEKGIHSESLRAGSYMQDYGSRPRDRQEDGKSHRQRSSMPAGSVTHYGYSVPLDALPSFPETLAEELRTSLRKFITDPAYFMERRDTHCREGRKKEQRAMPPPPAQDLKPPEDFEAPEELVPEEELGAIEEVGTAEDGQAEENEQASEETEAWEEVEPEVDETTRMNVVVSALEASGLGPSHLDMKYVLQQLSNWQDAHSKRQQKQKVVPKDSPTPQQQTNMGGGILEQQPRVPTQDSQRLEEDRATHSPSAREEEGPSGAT

Assay [3] has as its target WWC2 (WW and C2 domain-containing protein 2) (mouse (endogenous in brain)) (UniProt Q6NXJ0).
For assay [4] the target is unchanged. The source holds these as a separate data set.

For “WWC2 (WW and C2 domain-containing protein 2) (from UniProt Q6NXJ0 1-1187)”, the binding result in assay [1] and in assay [2] was “binds” throughout.

In the case of “glutamate receptor interacting protein 1 (GRIP1) (from UniProt Q925T6 1-1127)”, the binding entry in assay [3] is “binds”.

B1: gephyrin (protein, UniProt Q8BUV3 1-769)
chain: MATEGMILTNHDHQIRVGVLTVSDSCFRNLAEDRSGINLKDLVQDPSLLGGTISAYKIVPDEIEEIKETLIDWCDEKELNLILTTGGTGFAPRDVTPEATKEVIEREAPGMALAMLMGSLNVTPLGMLSRPVCGIRGKTLIINLPGSKKGSQECFQFILPALPHAIDLLRDAIVKVKEVHDELEDLPSPPPPLSPPPTTSPHKQTEDKGVQCEEEEEEKKDSGVASTEDSSSSHITAAALAAKIPDSIISRGVQVLPRDTASLSTTPSESPRAQATSRLSTASCPTPKQIRRPDESKGVASRVGSLKARLPSCSSTYSVSEVQSRCSSKENILRASHSAVDITKVARRHRMSPFPLTSMDKAFITVLEMTPVLGTEIINYRDGMGRVLAQDVYAKDNLPPFPASVKDGYAVRAADGPGDRFIIGESQAGEQPTQTVMPGQVMRVTTGAPIPCGADAVVQVEDTELIRESDDGTEELEVRILVQARPGQDIRPIGHDIKRGECVLAKGTHMGPSEIGLLATVGVTEVEVNKFPVVAVMSTGNELLNPEDDLLPGKIRDSNRSTLLATIQEHGYPTINLGIVGDNPDDLLNALNEGISRADVIITSGGVSMGEKDYLKQVLDIDLHAQIHFGRVFMKPGLPTTFATLDIDGVRKIIFALPGNPVSAVVTCNLFVVPALRKMQGILDPRPTIIKARLSCDVKLDPRPEYHRCILTWHHQEPLPWAQSTGNQMSSRLMSMRSANGLLMLPPKTEQYVELHKGEVVDVMVIGRL
In the case of B1, in assay [4], the binding entry is on record as “binds”.

B2: huntingtin-associated protein 1 (HAP1) (protein, UniProt O35668 1-628)
chain: T1 sequence
Consider B2, for which the binding entry in assay [4] is “binds”.
